Earlier results as cited in US4520134A, “N-alkyl-4'-hydroxyacetanilides, pharmaceutical compositions comprising them and their use” (priority 1984, dated 1985).
At least one structure is not confirmed: it was looked up by name or label, or the drawing left a doubt.

Experiments:
[1] = Kelleher et al.; cited from earlier work
[2] = Kelleher et al.; cited from earlier work; remark: listed apart in the source

c1ccc(Nc2ccc(Nc3ccccc3)cc2)cc1 [diphenyl-p-phenylene-diamine]
protection against CCl4 hepatotoxicity [1]: give protection against CCl4 hepatotoxicity | effect on acetaminophen hepatotoxicity [2]: enhances acetaminophen hepatotoxicity
